Experimental data published in article PMC3597719.
No constants are given. Whether binding was seen depends on the method and setting. Some results given as binding are weak or reduced against the parent protein; the word gives no strength.

The chains behind the UniProt entries cited, without tags or fusion partners. Where a name states a change or a piece, a line headed by the entry shows the natural chain unless it says otherwise. A line that says so, or that is headed by a name, gives the form on record, which may keep a tag or linker.
C7orf10 chromosome 7 open reading frame 10 (Q9HAC7-3, form named): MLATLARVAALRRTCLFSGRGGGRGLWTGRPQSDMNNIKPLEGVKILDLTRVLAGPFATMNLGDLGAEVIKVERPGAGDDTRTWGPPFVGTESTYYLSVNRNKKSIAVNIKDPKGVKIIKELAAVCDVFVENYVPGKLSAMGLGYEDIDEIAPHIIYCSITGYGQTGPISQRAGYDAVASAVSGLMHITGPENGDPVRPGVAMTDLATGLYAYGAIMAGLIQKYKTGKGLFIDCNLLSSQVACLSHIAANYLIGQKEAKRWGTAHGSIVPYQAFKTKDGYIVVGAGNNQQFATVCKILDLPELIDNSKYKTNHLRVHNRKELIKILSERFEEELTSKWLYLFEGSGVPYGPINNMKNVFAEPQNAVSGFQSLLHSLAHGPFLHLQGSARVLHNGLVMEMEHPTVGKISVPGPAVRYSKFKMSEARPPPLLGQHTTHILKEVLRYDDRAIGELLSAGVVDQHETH

Target: DENV2 NS1 protein (New Guinea C strain) fused to the GAL4 DNA-binding domain (dengue virus 2, New Guinea C (NGC) strain) (UniProt P14340)
Experiment: two-hybrid

Substance: C7orf10 chromosome 7 open reading frame 10 (from UniProt Q9HAC7-3 1-464)
- binding: binds
